Seven sequences from paper PMC13534945 can be followed below.

The target in series [1] is GATA1 (endogenous, K562) (Homo sapiens) (UniProt P15976). Description: native holdup single-point, western blot. The following applies: native holdup on streptavidin resin with total cell extract (1 or 0.1 mg/ml) in lysis buffer with added Mg2+ and K+ and lowered ionic strength, protein in an extract, label: 5' biotin on forward strand. Background: A western blot detects proteins with antibodies after separation by electrophoresis.

Series [2] concerns the target HA-GATA1 C282R (Homo sapiens) (UniProt P15976). Description: native holdup titration, western blot. The following applies: native holdup on streptavidin resin with total cell extract (1 or 0.1 mg/ml) in lysis buffer with added Mg2+ and K+ and lowered ionic strength; protein in a lysate after overexpression; residues 1-413; protein details: HA (N-terminal); label: 5' biotin on forward strand.

The target in series [3] is HA-GATA1 C228R (Homo sapiens) (UniProt P15976). Description: native holdup titration, western blot. The following applies: native holdup on streptavidin resin with total cell extract (1 or 0.1 mg/ml) in lysis buffer with added Mg2+ and K+ and lowered ionic strength; protein in a lysate after overexpression; residues 1-413; protein details: HA (N-terminal); label: 5' biotin on forward strand.

Series [4] addresses HA-GATA1 R216W (Homo sapiens) (UniProt P15976). In words: native holdup titration, western blot. The following applies: no major consistent perturbation; native holdup on streptavidin resin with total cell extract (1 or 0.1 mg/ml) in lysis buffer with added Mg2+ and K+ and lowered ionic strength; protein in a lysate after overexpression; residues 1-413; protein details: HA (N-terminal); label: 5' biotin on forward strand.

Series [5] addresses GATA1 (endogenous, K562) (Homo sapiens) (UniProt P15976). Description: native holdup titration, western blot. The following applies: native holdup on streptavidin resin with total cell extract (1 or 0.1 mg/ml) in lysis buffer with added Mg2+ and K+ and lowered ionic strength, protein in an extract, label: 5' biotin on forward strand.
Series [6] has as its target HA-GATA1 V205M (Homo sapiens) (UniProt P15976). In words: native holdup titration, western blot. The following applies: no major consistent perturbation; native holdup on streptavidin resin with total cell extract (1 or 0.1 mg/ml) in lysis buffer with added Mg2+ and K+ and lowered ionic strength; protein in a lysate after overexpression; residues 1-413; protein details: HA (N-terminal); label: 5' biotin on forward strand.

Series [7] concerns the target HA-GATA1 D218Y (Homo sapiens) (UniProt P15976). Description: native holdup titration, western blot. The following applies: no major consistent perturbation; native holdup on streptavidin resin with total cell extract (1 or 0.1 mg/ml) in lysis buffer with added Mg2+ and K+ and lowered ionic strength; protein in a lysate after overexpression; residues 1-413; protein details: HA (N-terminal); label: 5' biotin on forward strand.

The target of series [8] is HA-GATA1 R307C (Homo sapiens) (UniProt P15976). In words: native holdup titration, western blot. The following applies: native holdup on streptavidin resin with total cell extract (1 or 0.1 mg/ml) in lysis buffer with added Mg2+ and K+ and lowered ionic strength; protein in a lysate after overexpression; residues 1-413; protein details: HA (N-terminal); label: 5' biotin on forward strand.

Series [9] concerns the target HA-GATA1 WT (Homo sapiens) (UniProt P15976). Description: native holdup titration, western blot. The following applies: affinity nearly identical to endogenous GATA1; native holdup on streptavidin resin with total cell extract (1 or 0.1 mg/ml) in lysis buffer with added Mg2+ and K+ and lowered ionic strength; protein in a lysate after overexpression; residues 1-413; protein details: HA (N-terminal); label: 5' biotin on forward strand.

Series [10] deals with HA-GATA1s (short) (Homo sapiens) (UniProt P15976). In words: native holdup titration, western blot. The following applies: native holdup on streptavidin resin with total cell extract (1 or 0.1 mg/ml) in lysis buffer with added Mg2+ and K+ and lowered ionic strength; protein in a lysate after overexpression; protein details: HA; label: 5' biotin on forward strand.
Setting [11] is: biotin control, minimal binding, not a significant partner.

Where cells or extracts were used, other partners may take part. For some of these results: Negatives hold for the conditions tested. For some of these results: The exact form of at least one protein or probe is not confirmed. For some of these results: At least one verdict rests on a figure or table, not on a statement of the authors. For some of these results: The direction of at least one scale is not stated here.

Consider “ATGCCATTGCTTCATGCACGTATAGCCACTG (double strand) [SCR2]”, for which the binding result in series [1] (setting [11]) is on record as “no binding”.
Still for that read-out and setting: the same measure for “CCACTCTGTTCTAGAGAAGCCTTCGTGAACT (double strand) [SCR1]”: “no binding”.
With “GAATTGAGAGGTATCTTACCGCTCCCACTCC (double strand) [51_HAP]”, the binding result in [2] was “no binding”; in series [4], “binds”; in [6], “binds”; in series [7], “binds”; in series [9] it was “binds”. The binding signal (fold decreased affinity vs WT) came to 15 in [3] and 5.3 in series [8]. The Kd in series [5] (1 mg/ml extract) is 130 nM. For the same sequence, in series [10], the binding signal (fold increased affinity vs WT) was determined as 4.
With “GAATTGAGAGGTATCTTATCGCTCCCACTCC (double strand) [51_WT]”, the binding result is listed as “binds” in [1] (biotin, SCR1 or SCR2 control); “no binding” in series [2]; “binds” in series [4]; “binds” in series [6]; “binds” in [7]; “binds” in [9]. For the same sequence, the binding signal (fold decreased affinity vs WT) in series [3] and in series [8] was 2 throughout. The Kd in series [5] (1 mg/ml extract) stood at 17 nM. The sequence further yielded a binding signal (fold increased affinity vs WT) in series [10] of 1.6.
For the sequence “GCGCTATCAGATAAGGCCTTG (double strand) [CTRLpalindrome]”, the equilibrium dissociation constant (Kd) in series [5] was found to be 140 nM. That is a sub-micromolar value.
On to “TCAGCCCTCCGTATCGTCACCTACAC (double strand) [4945_WT]”, for which the Kd is 200 nM in [5] (0.1 mg/ml extract) and 100 nM in [5] (1 mg/ml extract).
Regarding “TCAGCCCTCCGTTTTGTCACCTACAC (double strand) [4945_HAP]”, the binding signal (fold weaker than 4945 WT) in series [5] (1 mg/ml extract, marginal interaction) was 100.

By Kd is commonly meant the equilibrium constant for the complex coming apart. Lower therefore signals a tighter complex.
